Assay in all cases: glycan array binding signal (z-score within array); higher = stronger binding
Holding throughout (details): glycan notation: IUPAC condensed, linker removed

For experiment [1], the target named is GlcA3S(b1-3)Gal(b1-4)GlcNAc(b1-3)Gal(b1-4)Glc. The method, boiled down:
(§1)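 The binding signal is a Z-score computed within each array. Data were drawn from 3228 arrays in the Consortium for Functional Glycomics database, restricted to those with a known protein sequence. Scores were averaged over arrays of the same protein sequence at different concentrations or buffers, and over linkers, and negative values can be taken as non-binding.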

The target of experiment [2] is GlcNAc(a1-3)Gal(b1-4)GlcNAc. In outline:
as §1

The target in experiment [3] is GlcNAc(a1-4)Gal(b1-3)GlcNAc. The method, boiled down:
as §1

Experiment [4] addresses GlcNAc(a1-4)Gal(b1-4)GalNAc. In outline: as §1
The target in experiment [5] is GlcNAc(a1-4)Gal(b1-4)GlcNAc. The method, boiled down: as §1
Experiment [6] deals with GlcNAc(a1-4)Gal(b1-4)GlcNAc(b1-3)Gal(b1-4)Glc. The method, boiled down: as §1
Experiment [7] concerns the target GlcNAc(a1-4)Gal(b1-4)GlcNAc(b1-3)Gal(b1-4)GlcNAc. In outline:
as §1

For experiment [8], the target named is GlcNAc(a1-4)Gal(b1-4)GlcNAc(b1-3)Gal(b1-4)GlcNAc(b1-3)Gal(b1-4)GlcNAc. In outline: as §1
In experiment [9] the target is GlcNAc(a1-4)Gal(b1-4)GlcNAc(b1-3)Gal(b1-4)[Fuc(a1-3)]GlcNAc(b1-3)Gal(b1-4)[Fuc(a1-3)]GlcNAc. The method, boiled down:
as §1

The target of experiment [10] is GlcNAc(a1-6)Gal(b1-4)GlcNAc. In outline:
as §1

The target of experiment [11] is GlcNAc(b1-2)Gal(b1-3)GalNAc. In outline:
as §1

Experiment [12] has as its target GlcNAc(b1-2)Man(a1-3)[GlcNAc(b1-2)Man(a1-6)]Man(b1-4)GlcNAc(b1-4)GlcNAc. The method, boiled down: as §1
The target in experiment [13] is GlcNAc(b1-2)Man(a1-3)[GlcNAc(b1-2)Man(a1-6)]Man(b1-4)GlcNAc(b1-4)[Fuc(a1-6)]GlcNAc. In outline: as §1
Experiment [14] has as its target GlcNAc(b1-2)Man(a1-3)[GlcNAc(b1-4)][GlcNAc(b1-2)Man(a1-6)]Man(b1-4)GlcNAc(b1-4)GlcNAc. The method, boiled down: as §1
Experiment [15] deals with GlcNAc(b1-2)Man(a1-3)[GlcNAc(b1-4)][GlcNAc(b1-2)Man(a1-6)]Man(b1-4)GlcNAc(b1-4)[Fuc(a1-6)]GlcNAc. In outline: as §1
In experiment [16] the target is GlcNAc(b1-2)[GlcNAc(b1-4)]Man(a1-3)[GlcNAc(b1-2)Man(a1-6)]Man(b1-4)GlcNAc(b1-4)GlcNAc. The method, boiled down: as §1
The target in experiment [17] is GlcNAc(b1-2)[GlcNAc(b1-4)]Man(a1-3)[GlcNAc(b1-4)][GlcNAc(b1-2)Man(a1-6)]Man(b1-4)GlcNAc(b1-4)GlcNAc. The method, boiled down: as §1
Experiment [18] has as its target GlcNAc(b1-2)[GlcNAc(b1-4)]Man(a1-3)[GlcNAc(b1-4)][GlcNAc(b1-2)[GlcNAc(b1-6)]Man(a1-6)]Man(b1-4)GlcNAc(b1-4)GlcNAc. In outline: as §1
The target in experiment [19] is GlcNAc(b1-2)[GlcNAc(b1-4)]Man(a1-3)[GlcNAc(b1-4)][GlcNAc(b1-2)[GlcNAc(b1-6)]Man(a1-6)]Man(b1-4)GlcNAc(b1-4)[Fuc(a1-6)]GlcNAc. The method, boiled down:
as §1

This is one part of the list.

B1: GST-Gap1 (Streptococcus parasanguinis), A1C3L5 (protein)
chain: MFYFVPSWYNGQRQWYYDTPWWFRVKNRMTFDDSVNQVKMFLQGQEEIGLMILNYQPQLRYFLHKQNIFGIYYWSFFDDIQNITRSYTKIIHLKDLNWPEGCEFLYSPFAVVVRLKGEIFAIVNYAEDGNLHSVSFQKNGKVTKDYIFDDRGFLSSILYYDIDERPLYQDYLNINGVWQVREFLKKENDPTPILMINDFSDQTFSKKYYNGWEELIKERLAIFQNNHVENEDVFVLASDTQHNQLVSSIFKEHRKIYSFFGNRFNLENLGQDRISINDATFLVVDTEKNEELLRKTCENLVFKSIPIVRLSPFDSRLRLGHSQTVKEQIIYFHIDNIELDELYSVIAIILELMTLHLDIELRIVTFRQDFQLDLLKTWIIDFIKTNHFEDLLFKQISEGENEIEDEGEIELSRIAMECFTNENQIIKCLDTARLVIDLGIEPDLYTQIASISAGIPQINRVSSDYVIHQKNGLVISDISKLSSAIEFYFDGLFNWNEALIYAVRKMSDYTSGKILKQWKGMLKKK
On to B1, for which the “glycan array binding signal (z-score)” value in experiment [1] is -0.819; in experiment [2] it was -0.787; in [3] it was 0.048; in experiment [4], -0.386; in [5], -0.205; in experiment [6], -0.146. Also, the “glycan array binding signal (z-score)” value is 0.102 in experiment [7]; 0.023 in experiment [8]; 1.06 in experiment [9]; -0.378 in experiment [10]; 1.1 in [11]; -0.043 in [12]. The “glycan array binding signal (z-score)” value was -0.297 in experiment [13]; -0.492 in [14]; -0.195 in experiment [15]; -0.599 in experiment [16]; -0.272 in experiment [17]; -0.504 in experiment [18]. Further, the “glycan array binding signal (z-score)” value in [19] was -1.15.

The values are drawn from the supplement of paper PMC8728848.
